Measurements as given in patent US5612455, “Nuclear factors and binding assay” (Tularik, Inc.).

Columns and labels:
Assay in all cases: EMSA
[1] = biological target: T1, NFAT3 rel domain (Homo sapiens) (UniProt Q14934); conditions: weak binding; core only printed; purified recombinant protein
T1 sequence: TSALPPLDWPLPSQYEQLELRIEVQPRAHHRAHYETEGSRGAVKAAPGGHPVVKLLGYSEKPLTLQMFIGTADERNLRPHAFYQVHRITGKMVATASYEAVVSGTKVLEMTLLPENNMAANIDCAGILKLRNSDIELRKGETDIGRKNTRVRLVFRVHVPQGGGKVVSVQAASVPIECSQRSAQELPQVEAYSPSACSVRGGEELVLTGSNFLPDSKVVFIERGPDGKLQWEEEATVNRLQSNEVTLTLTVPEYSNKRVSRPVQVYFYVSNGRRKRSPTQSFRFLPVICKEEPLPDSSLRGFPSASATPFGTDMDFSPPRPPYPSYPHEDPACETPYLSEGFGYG

[2] = biological target: T2, NFATp rel domain (353 aa, homologous to murine NFATp 185-537) (Homo sapiens) (UniProt Q13469); conditions: weaker than IL-4 site; highest relative affinity of the four NFATs; core only printed; purified recombinant protein
T2 sequence (limits assumed): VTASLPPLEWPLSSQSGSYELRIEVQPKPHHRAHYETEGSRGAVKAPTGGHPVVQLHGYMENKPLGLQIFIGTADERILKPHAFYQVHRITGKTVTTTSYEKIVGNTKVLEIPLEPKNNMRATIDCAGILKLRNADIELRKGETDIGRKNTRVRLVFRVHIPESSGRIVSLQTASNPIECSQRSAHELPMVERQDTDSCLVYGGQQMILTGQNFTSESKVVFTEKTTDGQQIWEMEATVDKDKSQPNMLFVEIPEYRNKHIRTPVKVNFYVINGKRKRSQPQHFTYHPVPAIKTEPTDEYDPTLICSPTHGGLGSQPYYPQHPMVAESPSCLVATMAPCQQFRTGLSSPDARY

[3] = biological target: T3, NFATc rel domain (NFATc-309) (Homo sapiens) (UniProt O95644); conditions: weak binding; core only printed; purified recombinant protein
T3 sequence: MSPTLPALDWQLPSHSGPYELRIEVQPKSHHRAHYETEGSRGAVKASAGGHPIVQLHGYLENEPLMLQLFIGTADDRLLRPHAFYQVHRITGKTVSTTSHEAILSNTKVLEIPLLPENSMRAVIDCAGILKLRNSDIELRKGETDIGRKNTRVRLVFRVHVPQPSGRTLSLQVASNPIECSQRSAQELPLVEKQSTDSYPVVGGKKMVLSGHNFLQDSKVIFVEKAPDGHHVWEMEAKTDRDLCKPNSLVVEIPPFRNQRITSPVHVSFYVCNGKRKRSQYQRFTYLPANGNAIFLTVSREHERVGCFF

[4] = tested on: c-Jun/Fra-1 heterodimer (AP-1); conditions: AP-1 alone binds relatively weakly; exact EMSA probe not stated; purified recombinant protein; protein details: E. coli, Fra-1 from pET11

“GGAAAAACTG (double strand) [IL-2 promoter NFAT site (distal antigen response element)]”: binds more weakly [1]; binds more weakly [2]; binds more weakly [3].

“GGAGGAAAAACTGTTTCATACAGAAGGCGT (double strand) [IL-2 NFAT/AP-1 composite element]”: binds more weakly [4].

A weaker result is weaker than the reference pair of the same experiment. For some of these results: Tags and fusion partners may be left off the protein sequences shown.
